Data: patent publication US20040259176A1, “Structural basis for the guanine nucleotide-binding activity of tissue transglutaminase and its regulation of transamidation activity” (priority 2003, published 2004)
For at least one compound, name, drawing or mass did not settle the structure.

What was measured:
[1] = system: tissue transglutaminase (TG); assay: TG expression by Western blot in SKBR3 cells; assay type: cell-based, human
Description: (§1) Cells were grown for 2 days in complete media and subsequently placed in low serum. The following day, cells were left untreated (0), treated with 5 μM RA (RA), 100 ng/ml EGF (EGF), or co-treated with 5 μM RA and 100 ng/ml EGF (RA/EGF) for 2 days and then lysed. In FIG. 9A, the cell extracts were used to determine TG GTP-binding activities (GTP-TGase) using an affinity-labeling assay with radioactive GTP as outlined in Example 11. Western blot analysis using TG and actin antibodies was performed to assess the expression levels of each of these proteins (TGase and actin). In FIG. 9B, the same cell lysates were assayed for TG transamidation activities as determined by the incorporation of 5-(biotin-amido) pentylamine into proteins as described in Example 12. The experiments were conducted in triplicate, quantitated, and the values from each experiment were averaged together and plotted. In FIG. 9C, SKBR3 cells were seeded at 1×10^5 cells/well and grown in low serum medium +/−5 μM RA and +/−100 ng/ml EGF for the times indicated and then counted. The results from three independent growth assays were averaged together and plotted.
Cells were grown to near confluence and were subsequently placed in low serum medium +/−6 μM LY294002. In FIG. 10A, SKBR3 cells were treated with 100 ng/ml EGF for 5 minutes, lysed, and then assayed for activated AKT (P-AK7) and actin (actin) by Western blot analysis. In FIG. 10B, cells pretreated with or without LY2940025 (LY) were treated +/−5 μM RA or +/−100 ng/ml EGF for 2 additional days before being lysed. The cell extracts were used to determine the expression levels of TG (TGase) and actin (actin) via Western blot analysis, as outlined in Example 10, and TG GTP-binding activity (GTP-TGase) by photoaffinity labeling, as outlined in Example 11. […]
NIH3T3 cells were grown in Dulbecco's modified Eagle's medium containing 10% calf serum and 100 units/ml penicillin. […] Protein concentrations were determined using the Bio-Rad DC protein assay. […]

PI3 kinase = assay: AKT phosphorylation (Western blot) as readout of PI3 kinase activity; assay type: cell-based, human; details: SKBR3 cells pre-incubated with LY294002 (6 μM), EGF 100 ng/ml 5 minutes; FIG. 10A
SKBR3 cells = assay: Cell growth assay; assay type: cell-based, human; details: low serum medium, 5 μM RA or 100 ng/ml EGF, up to 6 days; FIG. 9C
Description: as §1
Cells were seeded at 1×10^5 cells/well and grown in medium containing 0.5% serum +/−5 μM RA and +/−100 ng/ml EGF. Every 2 days the medium was changed. At 0, 2, 4, and 6 days of treatment, the cells were collected and counted.

[2] = system: tissue transglutaminase (TG); assay: TG GTP-binding activity by photoaffinity labeling with [α-32P]GTP in SKBR3 cell lysates; assay type: cell-based, human; details: SKBR3 cells, 5 μM RA or 100 ng/ml EGF for 2 days; FIG. 9A
Description: as §1
Photoaffinity labeling of TG was performed by incubating whole cell lysates with 5 μCi of [α-^32P]GTP in 50 mM Tris-HCl, pH 7.4, 2 mM EGTA, 1 mM DTT, 20% (w/v) glycerol, 100 mM NaCl, and 500 μM AMP-PNP for 10 minutes at room temperature. […]

[3] = system: tissue transglutaminase (TG); assay: TG expression by Western blot in NIH3T3 cells; assay type: cell-based, mouse; details: NIH3T3 cells stimulated with RA for 2 days; FIG. 9A

Row | Compound | EGF-stimulated increases in TGase expression ([1]; SKBR3 cells pretreated with LY294002, 100 ng/ml EGF 2 days, FIG. 10B) | RA-induced TG expression and GTP-binding ability ([1]; SKBR3 cells pretreated with LY294002, 5 μM RA 2 days, FIG. 10B) | EGF-stimulated AKT phosphorylation (PI3 kinase) | growth of SKBR3 cells (SKBR3 cells) | TG GTP-binding activity [2] | TG expression ([1]; SKBR3 cells, 5 μM RA or 100 ng/ml EGF for 2 days, FIG. 9A) | TG expression [3]
1 | O=c1cc(N2CCOCC2)oc2c(-c3ccccc3)cccc12 [LY294002] | compromised EGF-stimulated increases in TGase expression | nearly as effective at preventing RA-induced TG expression and GTP-binding ability in SKBR3 cells as it was in NIH3T3 cells | EGF no longer stimulated AKT phosphorylation | – | – | – | –
2 | CC1=C(/C=C/C(C)=C/C=C/C(C)=C/C(=O)O)C(C)(C)CCC1 [RA, retinoic acid] | – | – | – | severely diminished the growth | increase in the GTP-binding activity | significantly increased TG expression | induced TG expression
